Experimental data as given in patent US20090180956A1, “DIAGNOSTIC FOR EVALUATING GASTRIC EVACUATION FUNCTION AND/OR SMALL INTESTINAL ABSORPTION FUNCTION” (priority 2006, published 2009).
For at least one compound, name, drawing or mass did not settle the structure.

Settings: Buscopan 5 mg/ml/kg intraperitoneally, 15 minutes before oral 13C-succinic acid; versus non-treated control rats

## CCCC[N+]1(C)[C@@H]2C[C@@H](OC(=O)[C@H](CO)c3ccccc3)C[C@H]1[C@@H]1O[C@@H]12 (stereo partly shown) [Buscopan]
  effect of Buscopan on 13CO2 in the breath in the 13C-succinic acid breath test: decrease
